PubChem BioAssay AID652272 | Drosophila RNAi Screening Center, 2013

Purpose: 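Genome-wide knock-down search for components of Hedgehog signalling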 (primary screen)
Cell system: Drosophila clone 8 (Cl8) cells
Reagent: long dsRNA against Drosophila genes
Detection: 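Plate reader light from a firefly reporter under a ptc promoter fragment that responds to Hedgehog, with Renilla light as transfection reference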
Direction: firefly Hh reporter signal: higher = more ptc reporter light; Renilla reference signal: higher = more Renilla control light
Active means: 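Called a hit if the two-replicate mean z-score lies below -2 or above +3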
Meaning of the calls: active = hit: reporter lowered or raised; inactive = not a hit
The screen tested about 21,000 reagents; shown is a random part of those that have a named target and a result. In the full data, 503 (2.4%) are marked active. 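Raw plate light values, not normalised; calls rest on replicate z-scores that were not deposited; hits include reporter decreases as well as increases.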 Entries without a mark were called inactive. Not stated in the record: the amount of reagent, the time to read-out.

TwdlR [DRSC14736] scored firefly Hh reporter signal, replicate 1 = 96955; firefly Hh reporter signal, replicate 2 = 1.00e5; Renilla reference signal, replicate 1 = 2672; Renilla reference signal, replicate 2 = 3224.
Knock-down of CG11109 [DRSC11633] resulted in: firefly Hh reporter signal, replicate 1 = 1.49e5; firefly Hh reporter signal, replicate 2 = 1.28e5; Renilla reference signal, replicate 1 = 6312; Renilla reference signal, replicate 2 = 5059.
Silencing of Abcd3 [DRSC19488] came out at: firefly Hh reporter signal, replicate 1 = 80419; firefly Hh reporter signal, replicate 2 = 2.50e5; Renilla reference signal, replicate 1 = 800; Renilla reference signal, replicate 2 = 10360.
Rab19 [DRSC11260] scored firefly Hh reporter signal, replicate 1 = 63280; firefly Hh reporter signal, replicate 2 = 53479; Renilla reference signal, replicate 1 = 6338; Renilla reference signal, replicate 2 = 3837.
Silencing of bsd [DRSC05953] came out at: firefly Hh reporter signal, replicate 1 = 73712; firefly Hh reporter signal, replicate 2 = 28883; Renilla reference signal, replicate 1 = 1473; Renilla reference signal, replicate 2 = 1866.
With knock-down of CG13454 [DRSC10001], the record shows firefly Hh reporter signal, replicate 1 = 5.44e5; firefly Hh reporter signal, replicate 2 = 80724; Renilla reference signal, replicate 1 = 3576; Renilla reference signal, replicate 2 = 3576.
Against lin-28 [DRSC10261], the values are firefly Hh reporter signal, replicate 1 = 59433; firefly Hh reporter signal, replicate 2 = 59979; Renilla reference signal, replicate 1 = 1180; Renilla reference signal, replicate 2 = 4609.
Knock-down of CG4477 [DRSC10425] gave: firefly Hh reporter signal, replicate 1 = 43181; firefly Hh reporter signal, replicate 2 = 50307; firefly Hh reporter signal, replicate 3 = 83047; Renilla reference signal, replicate 1 = 4188; Renilla reference signal, replicate 2 = 5864.
After knock-down of cue [DRSC08248], the record shows firefly Hh reporter signal, replicate 1 = 1.32e5; firefly Hh reporter signal, replicate 2 = 65282; Renilla reference signal, replicate 1 = 5179; Renilla reference signal, replicate 2 = 2585.

Ordered by “Renilla reference signal, replicate 1” (low to high): some entries from above
Abcd3 [DRSC19488] | firefly Hh reporter signal, replicate 1 = 80419; firefly Hh reporter signal, replicate 2 = 2.50e5; Renilla reference signal, replicate 1 = 800; Renilla reference signal, replicate 2 = 10360
CG11109 [DRSC11633] | firefly Hh reporter signal, replicate 1 = 1.49e5; firefly Hh reporter signal, replicate 2 = 1.28e5; Renilla reference signal, replicate 1 = 6312; Renilla reference signal, replicate 2 = 5059

Additional reagents follow.
Knock-down of CG4935 [DRSC01924] gave: firefly Hh reporter signal, replicate 1 = 92541; firefly Hh reporter signal, replicate 2 = 77558; Renilla reference signal, replicate 1 = 2471; Renilla reference signal, replicate 2 = 5488.
With knock-down of Mos [DRSC07258] the results were firefly Hh reporter signal, replicate 1 = 55194; firefly Hh reporter signal, replicate 2 = 46076; Renilla reference signal, replicate 1 = 1698; Renilla reference signal, replicate 2 = 3786.
CG3610 [DRSC15502] gave firefly Hh reporter signal, replicate 1 = 60048; firefly Hh reporter signal, replicate 2 = 1.01e5; Renilla reference signal, replicate 1 = 1882; Renilla reference signal, replicate 2 = 2961.
After knock-down of RpL8 [DRSC08532], the record shows firefly Hh reporter signal, replicate 1 = 27035 (active); firefly Hh reporter signal, replicate 2 = 16301; Renilla reference signal, replicate 1 = 1328; Renilla reference signal, replicate 2 = 2212.
RpL8 [DRSC08695] showed firefly Hh reporter signal, replicate 1 = 23320 (active); firefly Hh reporter signal, replicate 2 = 18298; Renilla reference signal, replicate 1 = 1444; Renilla reference signal, replicate 2 = 2240.
